Reference: PubChem BioAssay AID686943 (Drosophila RNAi Screening Center, 2013)
In all, the deposit lists about 23,000 reagents; this is a random part of those with a known target gene and a result. 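Extra replicates exist only for a retested subset of genes; insulin dose and duration not given; both raised and lowered dpERK matter.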 The numbers tell different reagents against one gene apart. Names joined by + are all predicted targets of the reagent. Not all columns of the deposit are shown. Reagent sequences are not shown. Not given: the amount of reagent, the time to read-out.

Assay: 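Search across the genome for regulators of signalling from receptor tyrosine kinase to ERK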 (primary screen)
Cells: Drosophila S2R+ haemocyte-like cells expressing YFP-tagged ERK (Rolled)
Knock-down reagent: long dsRNA against Drosophila genes
Conditions: insulin stimulation versus unstimulated cells; dose and duration not given
Measurement: 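Antibody staining for doubly phosphorylated ERK divided by ERK-YFP signal, as plate z-scores, in insulin-treated and untreated cells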
Direction: replicate 1, z-score of dpERK with insulin: higher = more active ERK per ERK-YFP after insulin

CG12054 (GeneID 43694) → replicate 1, z-score of dpERK with insulin = -0.8
Cyp313a5 (GeneID 41486) → replicate 1, z-score of dpERK with insulin = 1.03
holn1 (GeneID 34432) #1 → replicate 1, z-score of dpERK with insulin = -0.22
holn1 (GeneID 34432) #2 → replicate 1, z-score of dpERK with insulin = -0.1
CG31098 (GeneID 43057) → replicate 1, z-score of dpERK with insulin = -0.08
Bub1 (GeneID 33758) → replicate 1, z-score of dpERK with insulin = -0.2
CG14756 (GeneID 35798) → replicate 1, z-score of dpERK with insulin = 0.16
Osi9 (GeneID 40763) → replicate 1, z-score of dpERK with insulin = 0.99
Jheh3 (GeneID 37182) → replicate 1, z-score of dpERK with insulin = 0.41
Rev1 (GeneID 38079) → replicate 1, z-score of dpERK with insulin = -0.4

In a second layout: results already given
{"gene": "CG12054 (GeneID 43694)", "dsRNA no.": 1, "replicate 1, z-score of dpERK with insulin": -0.8}
{"gene": "Cyp313a5 (GeneID 41486)", "dsRNA no.": 1, "replicate 1, z-score of dpERK with insulin": 1.03}
{"gene": "holn1 (GeneID 34432)", "dsRNA no.": 1, "replicate 1, z-score of dpERK with insulin": -0.22}

The listing continues:
CG17985 (GeneID 35702) → replicate 1, z-score of dpERK with insulin = 0.13
Eglp1 (GeneID 37736) → replicate 1, z-score of dpERK with insulin = 0.43
AMPdeam (GeneID 32352) #1 → replicate 1, z-score of dpERK with insulin = 0.73
AMPdeam (GeneID 32352) #2 → replicate 1, z-score of dpERK with insulin = -0.66
AMPdeam (GeneID 32352) #3 → replicate 1, z-score of dpERK with insulin = 2.11
AMPdeam (GeneID 32352) #4 → replicate 1, z-score of dpERK with insulin = -0.53
CG3803 (GeneID 37809) → replicate 1, z-score of dpERK with insulin = -0.22
ppk29 (GeneID 37844) → replicate 1, z-score of dpERK with insulin = 0.11
CG32262 (GeneID 38445) → replicate 1, z-score of dpERK with insulin = 0.63
CG7997 (GeneID 36829) → replicate 1, z-score of dpERK with insulin = -0.21
His3:CG33818 + His3:CG33857 + His3:CG33806 + 20 more → replicate 1, z-score of dpERK with insulin = -5.37
fig (GeneID 43511) → replicate 1, z-score of dpERK with insulin = -0.74
CG12868 (GeneID 36620) → replicate 1, z-score of dpERK with insulin = 0.08
mdlc (GeneID 42397) → replicate 1, z-score of dpERK with insulin = 0.07
Rpn3 (GeneID 35176) → replicate 1, z-score of dpERK with insulin = -0.73
CG9410 + CG15908 #1 → replicate 1, z-score of dpERK with insulin = 0.63
CG9410 + CG15908 #2 → replicate 1, z-score of dpERK with insulin = 0.25
dup (GeneID 47121) → replicate 1, z-score of dpERK with insulin = -4.6
CG42747 (GeneID 38732) #1 → replicate 1, z-score of dpERK with insulin = 0.59
CG42747 (GeneID 38732) #2 → replicate 1, z-score of dpERK with insulin = 0.29
CG3308 (GeneID 42527) → replicate 1, z-score of dpERK with insulin = 0.92
